Earlier results in patent publication US20090030055A1, “PKC activation as a means for enhancing s[sequence] secretion and improving cognition using bryostatin type compounds” (priority 2002, published 2009).

Tested on: sAPP secretion, AD fibroblasts
Conditions: both control and AD fibroblasts; cited from earlier work

CN[C@@H]1C[C@H]2O[C@@](C)([C@@H]1OC)n1c3ccccc3c3c4c(c5c6ccccc6n2c5c31)C(=O)NC4 [staurosporin]
effect of PKC inhibitor on benzolactam-induced sAPP secretion: eliminated the effects of benzolactam
